According to publication PMC4935812:
Positions count from the first letter of the chain named. These are yes or no findings as the source states them, for the method shown. In cells and extracts the contact can be indirect. Binding calls can cover weak binding; strength is not graded here. Tags and fused reporters may be left off the sequences shown.

Columns and labels:
Flag–SRSF3–K85R (human) = target: T1, Flag–SRSF3–K85R (human) (UniProt P84103); test: co-IP; Flag agarose beads, 1–2 mg lysate, overnight at 4 °C; IP buffer 50 mM Tris-Cl pH 7.5, 150 mM NaCl, 1 mM EDTA, 1% Triton X-100; cells mock or arsenite treated; western blot of the precipitates
T1 sequence: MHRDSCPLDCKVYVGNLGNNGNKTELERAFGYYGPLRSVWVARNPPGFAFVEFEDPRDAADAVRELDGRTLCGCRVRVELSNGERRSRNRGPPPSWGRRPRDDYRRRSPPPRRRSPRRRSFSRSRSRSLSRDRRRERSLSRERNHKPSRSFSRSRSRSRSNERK

Flag–SRSF3-WT (human) = target: T2, Flag–SRSF3-WT (human) (UniProt P84103); test: as above
T2 sequence: T1 sequence with R85K

eIF4G
binding (Flag–SRSF3–K85R (human)): binds
binding (Flag–SRSF3-WT (human)): binds
